Assay results taken from US20240277845A1.

Sequences of proteins named here, by UniProt entry; tags and fusion partners are left off. A change or cut given only in a name is not applied to a line headed by its entry. A line that says so, or that is headed by a name, gives the form on record, which may keep a tag or linker.
Fc-wtNKG2D (P26718, form named): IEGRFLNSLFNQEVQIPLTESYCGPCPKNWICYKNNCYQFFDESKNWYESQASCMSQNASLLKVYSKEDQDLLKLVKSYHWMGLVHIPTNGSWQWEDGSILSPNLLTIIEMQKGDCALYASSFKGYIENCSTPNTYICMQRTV
UniProt Q9BZM6: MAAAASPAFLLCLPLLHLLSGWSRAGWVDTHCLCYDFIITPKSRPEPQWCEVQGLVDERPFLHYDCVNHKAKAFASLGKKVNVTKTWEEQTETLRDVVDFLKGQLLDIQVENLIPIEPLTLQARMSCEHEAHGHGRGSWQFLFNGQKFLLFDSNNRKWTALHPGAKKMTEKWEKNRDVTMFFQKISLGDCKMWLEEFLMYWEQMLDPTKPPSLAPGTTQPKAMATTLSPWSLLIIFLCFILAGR

How the values were obtained:
Fc-wtNKG2D (human) [1] = target: Fc-wtNKG2D (human) (UniProt P26718); assay: Octet BLI, response against concentration; panel 'wtNKG2D', x axis printed as 'nM Fc-NKG2D.wt' (legend: monomeric ligands on Fc-wtNKG2D)
Fc-wtNKG2D (human) [2] = target: Fc-wtNKG2D (human) (UniProt P26718); assay: Octet BLI; Fc-wtNKG2D captured on AHC tips, dilution series of His-tagged monomeric ligand

Substance: His-tagged monomeric ULBP1 A1-A2 domain (from UniProt Q9BZM6) (ligand)
- binding (Fc-wtNKG2D (human) [1]): binds
- binding (Fc-wtNKG2D (human) [2]): binds

These are yes or no findings as the source states them, for the method shown. Binding calls can cover weak binding; strength is not graded here.
